# Results taken from patent US20110245351A1, “MEDICAL ADHESIVE FOR SURGERY” (BAYER MATERIALSCIENCE AG, priority 2008, published 2011).
# Assay: Gluing of beef pieces as tissue substitute, stability of the adhesive layer tested by pulling
# Parameters: key to Adhesive strength: ++: high adhesive strength, the tissue tears on pulling; −: low adhesive strength, the adhesive suture detaches from the tissue
# Details: 1 g prepolymer A-1 with equivalent quantity of diamine, applied thinly onto tissue
# Protocol: As a tissue substitute, beef was used. In each case, two pieces of meat (1=4 cm, h=0.3 cm, b=1 cm) were spread with the adhesive at the ends over a 1 cm width and glued overlapping. In each case, the stability of the adhesive layer was tested by pulling.
# 1 g of the prepolymer A-1 were stirred well in a beaker with an equivalent quantity of dimethyl 2,2′-(pentane-1,5-diylbis(azandiyl))bis(4-methylpentanoate). Directly after this, the reaction mixture was applied thinly onto the tissue to be glued. […] After 2 mins, the surface of the adhesive was no longer tacky.
row,Compound,Adhesion to tissue
1,"COC(=O)C(CC(C)C)NCCCCCNC(CC(C)C)C(=O)OC (centres unmarked) [Example 2, Dimethyl 2,2′-(pentan-1,5-diylbis(azandiyl))bis(4-methylpentanoate)]",strong adhesion

# Same assay, conditions: glued beef pieces, pulling
row,Compound,Adhesive strength
1,CCOC(=O)C(C)NCCCCNC(C)C(=O)OCC (centres unmarked),−
2,CCOC(=O)C(C)NCCCCCNC(C)C(=O)OCC (centres unmarked),−
3,COC(=O)C(Cc1ccccc1)NCCCNC(Cc1ccccc1)C(=O)OC (centres unmarked),−
4,COC(=O)C(Cc1ccccc1)NCCCCCCNC(Cc1ccccc1)C(=O)OC (centres unmarked),−
5,CCC(C)C(NCCCNC(C(=O)OC)C(C)CC)C(=O)OC (centres unmarked),++
6,COC(=O)C(NCCCNC(C(=O)OC)C(C)C)C(C)C (centres unmarked),++
7,COC(=O)C(CC(C)C)NCCCCCNC(CC(C)C)C(=O)OC (centres unmarked) [drawing 17],++
